Measured values as given in US8921365B2, “Pharmaceutical composition, substrate comprising a pharmaceutical composition, and use of a pharmaceutical composition” (priority 2007, dated 2014).
At least one structure is not confirmed: it was looked up by name or label, or the drawing left a doubt.

Tested on: S. aureus ATTC 6538P in osteoblastic MG63 cells
Assay: Intracellular infection of osteoblastic MG63 cells after lysostaphin, metabolic activity (MTT, absorbance 540 nm)
Settings: 1 to 100 μg/ml moxifloxacin; 24 h; FIG. 3e

COc1c(N2C[C@@H]3CCCN[C@@H]3C2)c(F)cc2c(=O)c(C(=O)O)cn(C3CC3)c12 [moxifloxacin]
increase of metabolic activity of infected osteoblastic MG63 cells: more than two fold
